# Data reported in the supplement of paper PMC8728848.
# The list shows a part of the results.
# B1: pilr alpha (protein)
# chain: MLYGVTQPKHLSASMGGSVEIPFSFYYPWELATAPDVRISWRRGHFHRQSFYSTRPPSIHKDYVNRLFLNWTEGQKSGFLRISNLQKQDQSVYFCRVELDTRSSGRQQWQSIEGTKLSIT
# What was measured:
# Experiment in all cases: glycan array binding signal (z-score within array); higher = stronger binding
# Conditions in all cases: glycan notation: IUPAC condensed, linker removed
# [1] = target: Neu5Ac(a2-6)Gal(b1-4)GlcNAc(b1-2)Man(a1-3)[Man(a1-6)]Man(b1-4)GlcNAc(b1-4)GlcNAc
# Procedure, shortened: (§1)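 The binding signal is a Z-score computed within each array and averaged over linkers. Arrays of the same protein sequence at different concentrations or buffers were also averaged together. Data originate from 3228 arrays in the Consortium for Functional Glycomics database, kept only where the protein sequence was available.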
# [2] = target: Neu5Ac(a2-6)Gal(b1-4)GlcNAc(b1-2)Man(a1-3)[Neu5Ac(a2-3)Gal(b1-4)GlcNAc(b1-2)Man(a1-6)]Man(b1-4)GlcNAc(b1-4)GlcNAc
# Procedure, shortened: as §1
# [3] = target: Neu5Ac(a2-6)Gal(b1-4)GlcNAc(b1-2)Man(a1-3)[Neu5Ac(a2-6)Gal(b1-4)GlcNAc(b1-2)Man(a1-6)]Man(b1-4)GlcNAc(b1-4)GlcNAc
# Procedure, shortened: as §1
# [4] = target: Neu5Ac(a2-6)Gal(b1-4)GlcNAc(b1-2)Man(a1-3)[Neu5Ac(a2-6)Gal(b1-4)GlcNAc(b1-2)Man(a1-6)]Man(b1-4)GlcNAc(b1-4)[Fuc(a1-6)]GlcNAc
# Procedure, shortened: as §1
# [5] = target: Neu5Ac(a2-6)Gal(b1-4)GlcNAc(b1-2)Man(a1-6)Man(b1-4)GlcNAc(b1-4)GlcNAc
# Procedure, shortened: as §1
# [6] = target: Neu5Ac(a2-6)Gal(b1-4)GlcNAc(b1-2)Man(a1-6)[Gal(b1-4)GlcNAc(b1-2)Man(a1-3)]Man(b1-4)GlcNAc(b1-4)GlcNAc
# Procedure, shortened: as §1
# [7] = target: Neu5Ac(a2-6)Gal(b1-4)GlcNAc(b1-2)Man(a1-6)[GlcNAc(b1-2)Man(a1-3)]Man(b1-4)GlcNAc(b1-4)GlcNAc
# Procedure, shortened: as §1
# [8] = target: Neu5Ac(a2-6)Gal(b1-4)GlcNAc(b1-2)Man(a1-6)[Man(a1-3)]Man(b1-4)GlcNAc(b1-4)GlcNAc
# Procedure, shortened: as §1
# [9] = target: Neu5Ac(a2-6)Gal(b1-4)GlcNAc(b1-2)[Neu5Ac(a2-6)Gal(b1-4)GlcNAc(b1-4)]Man(a1-3)[GlcNAc(b1-4)][Neu5Ac(a2-6)Gal(b1-4)GlcNAc(b1-2)[Neu5Ac(a2-6)Gal(b1-4)GlcNAc(b1-6)]Man(a1-6)]Man(b1-4)GlcNAc(b1-4)GlcNAc
# Procedure, shortened: as §1
# [10] = target: Neu5Ac(a2-6)Gal(b1-4)GlcNAc(b1-2)[Neu5Ac(a2-6)Gal(b1-4)GlcNAc(b1-4)]Man(a1-3)[GlcNAc(b1-4)][Neu5Ac(a2-6)Gal(b1-4)GlcNAc(b1-4)Man(a1-6)]Man(b1-4)GlcNAc(b1-4)GlcNAc
# Procedure, shortened: as §1
# [11] = target: Neu5Ac(a2-6)Gal(b1-4)GlcNAc(b1-2)[Neu5Ac(a2-6)Gal(b1-4)GlcNAc(b1-6)]Man(a1-6)[Neu5Ac(a2-6)Gal(b1-4)GlcNAc(b1-2)Man(a1-3)][GlcNAc(b1-4)]Man(b1-4)GlcNAc(b1-4)GlcNAc
# Procedure, shortened: as §1
# [12] = target: Neu5Ac(a2-6)Gal(b1-4)GlcNAc(b1-3)Gal(b1-3)GlcNAc
# Procedure, shortened: as §1
# [13] = target: Neu5Ac(a2-6)Gal(b1-4)GlcNAc(b1-3)Gal(b1-4)GlcNAc
# Procedure, shortened: as §1
# [14] = target: Neu5Ac(a2-6)Gal(b1-4)GlcNAc(b1-3)Gal(b1-4)GlcNAc(b1-2)Man(a1-3)[Neu5Ac(a2-6)Gal(b1-4)GlcNAc(b1-3)Gal(b1-4)GlcNAc(b1-2)Man(a1-6)]GalNAc
# Procedure, shortened: as §1
# [15] = target: Neu5Ac(a2-6)Gal(b1-4)GlcNAc(b1-3)Gal(b1-4)GlcNAc(b1-3)Gal(b1-4)GlcNAc
# Procedure, shortened: as §1
# [16] = target: Neu5Ac(a2-6)Gal(b1-4)GlcNAc(b1-3)Gal(b1-4)GlcNAc(b1-3)Gal(b1-4)GlcNAc(b1-2)Man(a1-3)[Neu5Ac(a2-6)Gal(b1-4)GlcNAc(b1-3)Gal(b1-4)GlcNAc(b1-3)Gal(b1-4)GlcNAc(b1-2)Man(a1-6)]GalNAc
# Procedure, shortened: as §1
# [17] = target: Neu5Ac(a2-6)Gal(b1-4)GlcNAc(b1-3)Gal(b1-4)GlcNAc(b1-3)GalNAc
# Procedure, shortened: as §1
# [18] = target: Neu5Ac(a2-6)Gal(b1-4)GlcNAc(b1-3)Gal(b1-4)GlcNAc(b1-3)[Neu5Ac(a2-6)Gal(b1-4)GlcNAc(b1-3)Gal(b1-4)GlcNAc(b1-6)]GalNAc
# Procedure, shortened: as §1
# [19] = target: Neu5Ac(a2-6)Gal(b1-4)GlcNAc(b1-3)Gal(b1-4)GlcNAc(b1-6)[Gal(b1-3)]GalNAc
# Procedure, shortened: as §1
# [20] = target: Neu5Ac(a2-6)Gal(b1-4)GlcNAc(b1-3)Gal(b1-4)[Fuc(a1-3)]GlcNAc(b1-3)Gal(b1-4)[Fuc(a1-3)]GlcNAc
# Procedure, shortened: as §1
# [21] = target: Neu5Ac(a2-6)Gal(b1-4)GlcNAc(b1-3)GalNAc
# Procedure, shortened: as §1
# [22] = target: Neu5Ac(a2-6)Gal(b1-4)GlcNAc(b1-3)[Neu5Ac(a2-6)Gal(b1-4)GlcNAc(b1-6)]GalNAc
# Procedure, shortened: as §1
# [23] = target: Neu5Ac(a2-6)Gal(b1-4)GlcNAc(b1-6)GalNAc
# Procedure, shortened: as §1
# [24] = target: Neu5Ac(a2-6)Gal(b1-4)GlcNAc(b1-6)[Gal(b1-3)GlcNAc(b1-3)]Gal(b1-4)Glc
# Procedure, shortened: as §1
# [25] = target: Neu5Ac(a2-6)Gal(b1-4)GlcNAc(b1-6)[Gal(b1-3)]GalNAc
# Procedure, shortened: as §1
# [26] = target: Neu5Ac(a2-6)Gal(b1-4)GlcNAc6S
# Procedure, shortened: as §1
# [27] = target: Neu5Ac(a2-6)GalNAc
# Procedure, shortened: as §1
# [28] = target: Neu5Ac(a2-6)GalNAc(b1-4)GlcNAc
# Procedure, shortened: as §1
# [29] = target: Neu5Ac(a2-6)GalNAc(b1-4)GlcNAc6S
# Procedure, shortened: as §1
# [30] = target: Neu5Ac(a2-6)GlcNAc(b1-4)GlcNAc
# Procedure, shortened: as §1
# [31] = target: Neu5Ac(a2-6)GlcNAc(b1-4)GlcNAc(b1-4)GlcNAc
# Procedure, shortened: as §1
binder,measurement,setting,value
B1,glycan array binding signal (z-score),[1],-0.359
same,glycan array binding signal (z-score),[2],-0.588
same,glycan array binding signal (z-score),[3],0.135
same,glycan array binding signal (z-score),[4],0.206
same,glycan array binding signal (z-score),[5],0.961
same,glycan array binding signal (z-score),[6],0.767
same,glycan array binding signal (z-score),[7],-0.276
same,glycan array binding signal (z-score),[8],-0.475
same,glycan array binding signal (z-score),[9],-0.465
same,glycan array binding signal (z-score),[10],-0.01
same,glycan array binding signal (z-score),[11],0.09
same,glycan array binding signal (z-score),[12],-0.564
same,glycan array binding signal (z-score),[13],-0.317
same,glycan array binding signal (z-score),[14],-0.229
same,glycan array binding signal (z-score),[15],-0.453
same,glycan array binding signal (z-score),[16],1.89
same,glycan array binding signal (z-score),[17],-0.457
same,glycan array binding signal (z-score),[18],0.102
same,glycan array binding signal (z-score),[19],-0.479
same,glycan array binding signal (z-score),[20],1.16
same,glycan array binding signal (z-score),[21],-0.365
same,glycan array binding signal (z-score),[22],-0.456
same,glycan array binding signal (z-score),[23],-0.956
same,glycan array binding signal (z-score),[24],-0.839
same,glycan array binding signal (z-score),[25],-0.677
same,glycan array binding signal (z-score),[26],-0.249
same,glycan array binding signal (z-score),[27],-0.546
same,glycan array binding signal (z-score),[28],-0.492
same,glycan array binding signal (z-score),[29],-0.275
same,glycan array binding signal (z-score),[30],-0.813
same,glycan array binding signal (z-score),[31],-0.423
